Data taken from paper PMC9670187.
No constants are given. Whether binding was seen depends on the method and setting. In cells and extracts the contact can be indirect. Some entries that bind do so weakly or less than the wild type. For part of these data: Tags and fused reporters may be left off the sequences shown.

By UniProt entry, the sequences of proteins in these tests, tags left out.
UniProt Q9P286: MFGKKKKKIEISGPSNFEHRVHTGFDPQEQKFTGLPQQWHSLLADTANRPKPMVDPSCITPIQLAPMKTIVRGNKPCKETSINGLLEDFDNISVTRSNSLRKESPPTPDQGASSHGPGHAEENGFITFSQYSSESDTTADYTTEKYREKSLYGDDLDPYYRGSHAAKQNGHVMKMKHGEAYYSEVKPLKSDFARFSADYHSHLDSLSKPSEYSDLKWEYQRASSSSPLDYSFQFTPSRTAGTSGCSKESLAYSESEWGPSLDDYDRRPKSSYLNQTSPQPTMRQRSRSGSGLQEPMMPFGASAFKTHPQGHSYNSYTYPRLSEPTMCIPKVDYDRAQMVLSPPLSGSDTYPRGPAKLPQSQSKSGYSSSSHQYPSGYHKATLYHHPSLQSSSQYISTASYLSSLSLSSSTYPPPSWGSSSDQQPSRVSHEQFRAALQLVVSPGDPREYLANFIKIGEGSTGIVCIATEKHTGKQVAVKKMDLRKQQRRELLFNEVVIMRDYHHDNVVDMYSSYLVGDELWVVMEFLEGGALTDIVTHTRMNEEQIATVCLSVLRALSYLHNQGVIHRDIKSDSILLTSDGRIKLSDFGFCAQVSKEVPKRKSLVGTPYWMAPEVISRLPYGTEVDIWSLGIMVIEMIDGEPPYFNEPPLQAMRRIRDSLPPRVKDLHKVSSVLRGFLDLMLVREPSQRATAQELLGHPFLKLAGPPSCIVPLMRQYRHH

Key:
[1] = target: T1, Flag-SRSF11 (wild type) (human) (UniProt Q05519); test: co-IP; LoVo cells co-transfected with MYC-PAK5 and Flag-SRSF11; IP with anti-Flag and blot for MYC, or IP with anti-MYC and blot for Flag; IP lysis buffer, overnight at 4°C, Protein A+G agarose
T1 sequence: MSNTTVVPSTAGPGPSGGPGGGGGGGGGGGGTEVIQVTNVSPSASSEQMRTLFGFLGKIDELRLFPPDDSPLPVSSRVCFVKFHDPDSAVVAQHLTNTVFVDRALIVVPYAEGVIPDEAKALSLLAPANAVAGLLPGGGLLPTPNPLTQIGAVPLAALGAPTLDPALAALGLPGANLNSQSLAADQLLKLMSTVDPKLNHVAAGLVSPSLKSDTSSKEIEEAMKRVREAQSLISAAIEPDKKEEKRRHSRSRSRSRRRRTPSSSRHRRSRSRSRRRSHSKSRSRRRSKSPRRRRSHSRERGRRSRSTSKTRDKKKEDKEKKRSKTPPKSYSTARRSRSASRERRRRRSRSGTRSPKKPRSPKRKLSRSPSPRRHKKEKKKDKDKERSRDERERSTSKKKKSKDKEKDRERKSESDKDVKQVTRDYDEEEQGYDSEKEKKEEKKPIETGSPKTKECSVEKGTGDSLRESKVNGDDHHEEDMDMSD

[2] = target: T2, SRSF11, endogenous (human (endogenous in LoVo)) (UniProt Q05519); test: co-IP; endogenous proteins, LoVo cell lysate (IP lysis buffer); IP with anti-SRSF11 overnight at 4°C, Protein A+G agarose; blot for PAK5
T2 sequence: T1 sequence

[3] = target: MYC-PAK5 (UniProt Q9P286); test: co-IP; LoVo cells co-transfected with MYC-PAK5 and Flag-SRSF11; IP with anti-Flag and blot for MYC, or IP with anti-MYC and blot for Flag; IP lysis buffer, overnight at 4°C, Protein A+G agarose

Molecule: MYC-PAK5 (from UniProt Q9P286 1-719) (enzyme)
- binding [1]: binds

Molecule: p21-activated kinase 5 (PAK5), endogenous (from UniProt Q9P286 1-719) (enzyme)
- binding [2]: binds

B1: Flag-SRSF11 (wild type) (protein, UniProt Q05519-1 1-484)
chain: T1 sequence
- binding [3]: binds
